From paper doi:10.1101/2020.05.13.093591
These are yes or no findings as the source states them, for the method shown. In cells and extracts the contact can be indirect. A yes stands for co-enrichment or nearness to the bait. Other partners may have been found.

Target: PfJ2 (PF3D7_1108700), 3xHA-tagged at the endogenous locus (P. falciparum (3D7))
Assay: affinity purification with mass spectrometry

B1: PfRhopH3 (protein, UniProt Q8I395 25-897)
chain: KDVFAGFVTKKLKTLLDCNFALYYNFKGNGPDAGSFLDFVDEPEQFYWFVEHFLSVKFRVPKHLKDKNIHNFTPCLNRSWVSEFLKEYEEPFVNPVMKFLDKEQRLFFTYNFGDVEPQGKYTYFPVKEFHKYCILPPLIKTNIKDGESGEFLKYQLNKEEYKVFLSSVGSQMTAIKNLYSTVEDEQRKQLLKVIIENESTNDISVQCPTYNIKLHYTKECANSNNILKCIDEFLRKTCEKKTESKHPSADLCEHLQFLFESLKNPYLDNFKKFMTNSDFTLIKPQSVWNVPIFDIYKPKNYLDSVQNLDTECFKKLNSKNLIFLSFHDDIPNNPYYNVELQEIVKLSTYTYSIFDKLYNFFFVFKKSGAPISPVSVKELSHNITDFSFKEDNSEIQCQNVRKSLDLEVDVETMKGIAAEKLCKIIEKFILTKDDASKPEKSDIHRGFRILCILISTHVEAYNIVRQLLNMESMISLTRYTSLYIHKFFKSVTLLKGNFLYKNNKAIRYSRACSKASLHVPSVLYRRNIYIPETFLSLYLGLSNLVSSNPSSPFFEYAIIEFLVTYYNKGSEKFVLYFISIISVLYINEYYYEQLSCFYPKEFELIKSRMIHPNIVDRILKGIDNLMKSTRYDKMRTMYLDFESSDIFSREKVFTALYNFDSFIKTNEQLKKKNLEEISEIPVQLETSNDGIGYRKQDVLYETDKPQTMDEASYEETVDEDAHHVNEKQHSAHFLDAIAEKDILEEKTKDQDLEIELYKYMGPLKEQSKSTSAASTSDEISGSEGPSTESTSTGNQGEDKTTDNTYKEMEELEEAEGTSNLKKGLEFYKSSLKLDQLDKEKPKKKKSKRKKKRDSSSDRILLEESKTFTSENEL
In the case of B1, the binding is reported as “binds”.
